According to the supplement of paper PMC12819154, “High-throughput peptide-centric local stability assay extends protein–ligand identification to membrane proteins, tissues and bacteria” (Nature Structural & Molecular Biology, 2025):
The list shows a part of the results. Small differences around the control level are noise.

Protein sequences, listed by entry. Tags and fused reporters are not part of them. Lines headed by an entry give the natural chain unless they say otherwise; changes in a name come on top.
UniProt Q14157: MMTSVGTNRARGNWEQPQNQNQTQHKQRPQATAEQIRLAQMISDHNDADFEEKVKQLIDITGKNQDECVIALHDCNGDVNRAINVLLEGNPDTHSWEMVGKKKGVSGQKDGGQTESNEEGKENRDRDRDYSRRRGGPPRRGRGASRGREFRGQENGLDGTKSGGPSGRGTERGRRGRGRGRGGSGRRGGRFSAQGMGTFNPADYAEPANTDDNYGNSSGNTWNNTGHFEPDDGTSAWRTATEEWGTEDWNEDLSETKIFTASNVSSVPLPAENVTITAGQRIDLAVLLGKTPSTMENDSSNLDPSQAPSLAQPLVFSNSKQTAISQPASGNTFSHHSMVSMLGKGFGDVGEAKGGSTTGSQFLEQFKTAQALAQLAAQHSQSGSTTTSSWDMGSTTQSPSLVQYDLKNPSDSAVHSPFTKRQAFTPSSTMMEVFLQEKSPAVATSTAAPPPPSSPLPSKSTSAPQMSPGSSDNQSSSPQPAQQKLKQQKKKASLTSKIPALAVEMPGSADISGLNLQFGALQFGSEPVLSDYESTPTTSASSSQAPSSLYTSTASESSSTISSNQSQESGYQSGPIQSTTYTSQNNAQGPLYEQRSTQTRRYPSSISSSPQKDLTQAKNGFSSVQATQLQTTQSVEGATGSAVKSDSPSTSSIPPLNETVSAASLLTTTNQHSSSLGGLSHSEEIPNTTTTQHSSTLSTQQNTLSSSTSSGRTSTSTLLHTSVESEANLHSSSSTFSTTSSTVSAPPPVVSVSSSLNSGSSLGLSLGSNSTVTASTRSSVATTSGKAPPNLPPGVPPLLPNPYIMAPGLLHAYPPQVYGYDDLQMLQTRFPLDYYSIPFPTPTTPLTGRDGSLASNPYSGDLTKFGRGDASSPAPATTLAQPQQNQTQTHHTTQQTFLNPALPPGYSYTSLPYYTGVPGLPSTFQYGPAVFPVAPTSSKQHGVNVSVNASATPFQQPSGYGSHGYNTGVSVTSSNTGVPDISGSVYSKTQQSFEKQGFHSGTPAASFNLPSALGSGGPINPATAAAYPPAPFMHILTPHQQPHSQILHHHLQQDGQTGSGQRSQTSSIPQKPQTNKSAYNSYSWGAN
UniProt Q14CZ7: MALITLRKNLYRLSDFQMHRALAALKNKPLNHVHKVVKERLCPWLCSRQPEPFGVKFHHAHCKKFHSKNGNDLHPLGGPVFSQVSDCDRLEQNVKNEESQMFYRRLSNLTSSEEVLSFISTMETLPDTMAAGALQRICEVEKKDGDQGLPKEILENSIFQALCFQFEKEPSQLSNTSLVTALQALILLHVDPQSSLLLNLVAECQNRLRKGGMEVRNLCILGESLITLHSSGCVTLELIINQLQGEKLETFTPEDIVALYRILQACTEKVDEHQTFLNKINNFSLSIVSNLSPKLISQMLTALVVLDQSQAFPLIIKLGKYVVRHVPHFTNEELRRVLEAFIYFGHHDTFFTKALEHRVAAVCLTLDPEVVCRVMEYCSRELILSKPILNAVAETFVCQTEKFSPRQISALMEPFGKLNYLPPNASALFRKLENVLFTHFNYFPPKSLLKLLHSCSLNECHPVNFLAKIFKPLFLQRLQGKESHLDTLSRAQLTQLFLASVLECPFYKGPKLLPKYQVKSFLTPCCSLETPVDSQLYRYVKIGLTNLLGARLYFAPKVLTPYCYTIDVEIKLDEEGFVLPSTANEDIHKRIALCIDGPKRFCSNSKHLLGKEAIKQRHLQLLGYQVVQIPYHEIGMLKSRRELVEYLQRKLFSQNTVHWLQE
UniProt Q13616, whole entry: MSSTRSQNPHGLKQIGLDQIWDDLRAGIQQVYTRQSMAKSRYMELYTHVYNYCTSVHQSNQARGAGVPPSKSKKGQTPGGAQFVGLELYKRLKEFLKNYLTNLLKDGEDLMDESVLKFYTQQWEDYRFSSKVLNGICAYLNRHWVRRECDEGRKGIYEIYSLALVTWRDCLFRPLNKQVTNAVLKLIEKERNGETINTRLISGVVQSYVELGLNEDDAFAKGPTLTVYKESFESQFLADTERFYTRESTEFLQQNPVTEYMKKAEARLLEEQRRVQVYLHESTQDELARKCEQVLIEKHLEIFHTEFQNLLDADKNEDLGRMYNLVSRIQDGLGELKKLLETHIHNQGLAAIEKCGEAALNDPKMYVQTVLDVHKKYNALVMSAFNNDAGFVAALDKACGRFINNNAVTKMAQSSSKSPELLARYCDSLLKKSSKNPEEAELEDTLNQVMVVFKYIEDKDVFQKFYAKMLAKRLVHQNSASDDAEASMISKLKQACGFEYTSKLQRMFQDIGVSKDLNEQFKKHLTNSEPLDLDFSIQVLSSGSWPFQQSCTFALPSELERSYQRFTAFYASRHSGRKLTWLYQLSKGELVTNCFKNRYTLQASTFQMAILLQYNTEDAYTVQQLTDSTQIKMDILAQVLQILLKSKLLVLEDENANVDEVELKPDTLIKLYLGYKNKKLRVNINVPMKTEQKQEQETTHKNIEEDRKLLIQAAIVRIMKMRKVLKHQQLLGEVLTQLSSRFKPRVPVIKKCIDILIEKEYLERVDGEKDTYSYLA
UniProt Q13356: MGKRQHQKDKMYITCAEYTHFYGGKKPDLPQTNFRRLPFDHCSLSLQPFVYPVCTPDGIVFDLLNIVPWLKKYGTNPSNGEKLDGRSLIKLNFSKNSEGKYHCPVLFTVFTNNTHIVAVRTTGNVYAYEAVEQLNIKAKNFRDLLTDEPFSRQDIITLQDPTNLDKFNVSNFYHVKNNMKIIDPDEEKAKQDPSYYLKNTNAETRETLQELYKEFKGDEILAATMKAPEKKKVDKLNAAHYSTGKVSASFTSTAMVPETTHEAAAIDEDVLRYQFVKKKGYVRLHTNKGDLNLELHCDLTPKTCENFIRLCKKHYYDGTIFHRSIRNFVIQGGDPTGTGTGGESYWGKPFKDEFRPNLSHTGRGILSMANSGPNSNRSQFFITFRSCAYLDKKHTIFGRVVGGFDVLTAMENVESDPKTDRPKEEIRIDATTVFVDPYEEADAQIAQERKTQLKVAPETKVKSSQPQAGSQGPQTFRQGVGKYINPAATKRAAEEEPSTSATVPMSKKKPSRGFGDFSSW
UniProt Q14257: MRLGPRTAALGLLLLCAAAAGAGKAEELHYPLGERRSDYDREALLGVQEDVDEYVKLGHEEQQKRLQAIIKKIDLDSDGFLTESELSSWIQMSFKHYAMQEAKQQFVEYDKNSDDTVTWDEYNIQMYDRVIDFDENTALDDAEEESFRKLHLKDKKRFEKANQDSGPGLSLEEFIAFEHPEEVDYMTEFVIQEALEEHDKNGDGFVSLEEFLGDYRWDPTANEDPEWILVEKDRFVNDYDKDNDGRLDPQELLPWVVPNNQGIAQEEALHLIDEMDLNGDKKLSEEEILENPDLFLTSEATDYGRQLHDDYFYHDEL
UniProt Q13155: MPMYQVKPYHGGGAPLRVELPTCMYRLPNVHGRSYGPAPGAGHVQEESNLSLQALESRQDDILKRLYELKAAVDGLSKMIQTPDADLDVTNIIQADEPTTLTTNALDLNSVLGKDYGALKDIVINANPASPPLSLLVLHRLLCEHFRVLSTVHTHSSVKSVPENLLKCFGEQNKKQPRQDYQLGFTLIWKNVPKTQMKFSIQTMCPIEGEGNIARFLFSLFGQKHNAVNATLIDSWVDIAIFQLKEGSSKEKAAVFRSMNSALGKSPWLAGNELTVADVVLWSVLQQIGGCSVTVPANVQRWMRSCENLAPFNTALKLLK
UniProt Q14746: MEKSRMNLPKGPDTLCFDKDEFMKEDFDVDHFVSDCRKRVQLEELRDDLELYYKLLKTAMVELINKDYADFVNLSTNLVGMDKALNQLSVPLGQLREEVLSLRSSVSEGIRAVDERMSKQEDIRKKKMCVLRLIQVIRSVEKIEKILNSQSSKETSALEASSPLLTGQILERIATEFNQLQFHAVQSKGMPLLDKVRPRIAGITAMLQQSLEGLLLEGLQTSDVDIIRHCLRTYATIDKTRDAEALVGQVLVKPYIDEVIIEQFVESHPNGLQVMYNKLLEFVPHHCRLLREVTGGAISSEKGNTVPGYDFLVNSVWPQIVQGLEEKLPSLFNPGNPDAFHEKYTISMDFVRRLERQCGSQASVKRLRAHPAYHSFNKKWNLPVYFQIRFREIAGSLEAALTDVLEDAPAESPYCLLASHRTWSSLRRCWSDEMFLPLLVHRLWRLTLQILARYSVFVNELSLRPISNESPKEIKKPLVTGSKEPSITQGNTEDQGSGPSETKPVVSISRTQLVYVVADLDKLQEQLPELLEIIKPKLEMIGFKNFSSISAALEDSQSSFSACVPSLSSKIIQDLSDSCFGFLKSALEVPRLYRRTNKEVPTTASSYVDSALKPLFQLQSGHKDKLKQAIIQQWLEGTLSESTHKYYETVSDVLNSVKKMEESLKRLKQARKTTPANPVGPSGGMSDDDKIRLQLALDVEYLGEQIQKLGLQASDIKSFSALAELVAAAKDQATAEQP
UniProt Q14974, whole entry: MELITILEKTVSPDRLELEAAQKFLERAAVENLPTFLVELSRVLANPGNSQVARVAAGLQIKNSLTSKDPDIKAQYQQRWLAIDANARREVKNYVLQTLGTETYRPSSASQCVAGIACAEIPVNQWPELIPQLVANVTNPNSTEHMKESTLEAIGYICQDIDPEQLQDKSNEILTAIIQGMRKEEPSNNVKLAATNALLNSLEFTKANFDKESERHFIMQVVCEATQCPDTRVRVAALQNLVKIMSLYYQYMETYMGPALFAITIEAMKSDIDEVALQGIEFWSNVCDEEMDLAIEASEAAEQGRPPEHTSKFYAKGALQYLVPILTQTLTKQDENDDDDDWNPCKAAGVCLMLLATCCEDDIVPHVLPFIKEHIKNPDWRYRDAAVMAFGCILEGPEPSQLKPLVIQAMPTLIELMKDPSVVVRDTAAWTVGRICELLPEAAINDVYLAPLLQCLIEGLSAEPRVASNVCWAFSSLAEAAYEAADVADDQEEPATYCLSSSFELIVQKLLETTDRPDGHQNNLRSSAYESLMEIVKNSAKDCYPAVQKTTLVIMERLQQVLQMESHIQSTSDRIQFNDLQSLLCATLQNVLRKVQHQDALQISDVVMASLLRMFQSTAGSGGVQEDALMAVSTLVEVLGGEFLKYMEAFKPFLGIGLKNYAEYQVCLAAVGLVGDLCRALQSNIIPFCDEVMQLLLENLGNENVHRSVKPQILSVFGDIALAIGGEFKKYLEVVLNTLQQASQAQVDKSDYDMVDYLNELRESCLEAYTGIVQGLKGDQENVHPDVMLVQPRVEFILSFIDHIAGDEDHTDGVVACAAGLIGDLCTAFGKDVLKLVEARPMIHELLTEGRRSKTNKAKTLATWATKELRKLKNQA
UniProt Q13643: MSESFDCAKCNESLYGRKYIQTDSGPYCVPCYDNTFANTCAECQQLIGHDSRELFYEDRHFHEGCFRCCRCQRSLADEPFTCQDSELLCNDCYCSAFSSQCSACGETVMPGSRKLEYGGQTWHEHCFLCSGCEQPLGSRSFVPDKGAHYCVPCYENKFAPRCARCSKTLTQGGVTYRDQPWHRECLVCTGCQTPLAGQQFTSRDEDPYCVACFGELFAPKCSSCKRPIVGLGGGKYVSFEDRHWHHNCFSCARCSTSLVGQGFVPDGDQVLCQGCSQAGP
UniProt Q13287: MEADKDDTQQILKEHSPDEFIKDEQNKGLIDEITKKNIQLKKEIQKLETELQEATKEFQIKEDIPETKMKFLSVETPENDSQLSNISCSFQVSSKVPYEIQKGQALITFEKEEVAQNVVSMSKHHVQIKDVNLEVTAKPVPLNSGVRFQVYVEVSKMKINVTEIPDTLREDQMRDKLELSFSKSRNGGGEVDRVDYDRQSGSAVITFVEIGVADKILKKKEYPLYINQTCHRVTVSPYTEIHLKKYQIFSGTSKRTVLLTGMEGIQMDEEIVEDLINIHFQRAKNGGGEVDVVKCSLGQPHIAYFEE
UniProt Q13424: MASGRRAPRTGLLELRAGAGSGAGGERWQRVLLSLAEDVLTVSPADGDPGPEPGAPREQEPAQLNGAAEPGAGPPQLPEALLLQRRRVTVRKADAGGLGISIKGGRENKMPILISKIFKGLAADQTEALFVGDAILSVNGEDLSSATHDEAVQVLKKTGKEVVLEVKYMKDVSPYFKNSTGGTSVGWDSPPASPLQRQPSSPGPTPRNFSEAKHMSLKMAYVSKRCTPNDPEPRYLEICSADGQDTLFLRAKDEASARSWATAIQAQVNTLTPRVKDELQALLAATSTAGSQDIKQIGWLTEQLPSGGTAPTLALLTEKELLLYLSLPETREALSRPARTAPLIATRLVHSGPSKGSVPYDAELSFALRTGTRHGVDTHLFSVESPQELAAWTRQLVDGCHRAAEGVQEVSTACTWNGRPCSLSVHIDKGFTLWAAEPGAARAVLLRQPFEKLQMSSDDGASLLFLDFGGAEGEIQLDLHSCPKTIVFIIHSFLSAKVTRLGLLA
UniProt Q13442: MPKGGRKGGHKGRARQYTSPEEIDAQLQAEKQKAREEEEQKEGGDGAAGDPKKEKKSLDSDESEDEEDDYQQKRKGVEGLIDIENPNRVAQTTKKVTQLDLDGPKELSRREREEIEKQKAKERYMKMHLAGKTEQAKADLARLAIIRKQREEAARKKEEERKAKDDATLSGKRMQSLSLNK

Compound: Cc1nc(Nc2ncc(C(=O)Nc3c(C)cccc3Cl)s2)cc(N2CCN(CCO)CC2)n1 [dasatinib]
Test: log2 fold change of tryptic peptide abundance, ligand vs vehicle (limited proteolysis) (log2 ratio); higher = more trypsin-susceptible (destabilized)
Conditions: ligand concentration: 5 uM; sample: K562 cleared lysate

Question: Which log2 fold change does the source give for “ATXN7L3 (peptide sequence: SKECVCPNCSR, peptide start residue: 81) (UniProt Q14CW9)” here?
Answer: 0.728

Question: With “CTBP1 (peptide sequence: IGSGFDNIDIK, peptide start residue: 98) (UniProt Q13363)” as the target, how does the log2 fold change read?
Answer: -0.102

Question: For “UBAP2L (peptide sequence: IDLAVLLGK, peptide start residue: 282) (UniProt Q14157)”, which log2 fold change is on record?
Answer: -0.201

Question: Which log2 fold change does the source give for “ITPK1 (peptide sequence: KLNFQAFAELCR, peptide start residue: 21) (UniProt Q13572)” here?
Answer: -0.297

Question: For “MELK (peptide sequence: LKGDAWVYKR, peptide start residue: 631) (UniProt Q14680)”, which log2 fold change is on record?
Answer: 0.753

Question: How did the log2 fold change turn out when “FASTKD3 (peptide sequence: NEESQMFYR, peptide start residue: 96) (UniProt Q14CZ7)” was run?
Answer: 0.11

Question: How did the log2 fold change turn out when “NAB1 (peptide sequence: QPHHFVVDGELSR, peptide start residue: 435) (UniProt Q13506)” was run?
Answer: 0.142

Question: Which log2 fold change does the source give for “NFATC2 (peptide sequence: TSLAEDSCLGR, peptide start residue: 224) (UniProt Q13469)” here?
Answer: 0.153

Question: With “LASP1 (peptide sequence: DSQDGSSYR, peptide start residue: 145) (UniProt Q14847)” as the target, how does the log2 fold change read?
Answer: -0.0837

Question: With “MVP (peptide sequence: DLAVAGPEMQVK, peptide start residue: 809) (UniProt Q14764)” as the target, how does the log2 fold change read?
Answer: 0.246

Question: How did the log2 fold change turn out when “GSE1 (peptide sequence: KFLTIFNLTHISAEKR, peptide start residue: 865) (UniProt Q14687)” was run?
Answer: -0.383

Question: “CUL1 (peptide sequence: FINNNAVTK, peptide start residue: 402) (UniProt Q13616)” was tested. Which log2 fold change did it give?
Answer: -0.428

Question: How did the log2 fold change turn out when “CUL7 (peptide sequence: SQSHPALER, peptide start residue: 1432) (UniProt Q14999)” was run?
Answer: 0.441

Question: With “PPIL2 (peptide sequence: EFKGDEILAATMKAPEK, peptide start residue: 214) (UniProt Q13356)” as the target, how does the log2 fold change read?
Answer: -0.688

Question: For “RCN2 (peptide sequence: QLHDDYFYHDEL, peptide start residue: 306) (UniProt Q14257)”, which log2 fold change is on record?
Answer: -0.0599

Question: With “IRF3 (peptide sequence: HVLSCLGGGLALWR, peptide start residue: 263) (UniProt Q14653)” as the target, how does the log2 fold change read?
Answer: -0.306

Question: With “EFR3A (peptide sequence: SLLMVTSGYK, peptide start residue: 439) (UniProt Q14156)” as the target, how does the log2 fold change read?
Answer: 0.227

Question: For “UniProt Q13155 (peptide sequence: CFGEQNKK, peptide start residue: 168)”, which log2 fold change is on record?
Answer: -0.284

Question: For “AP3B2 (peptide sequence: KLLQMQPAQHGEIIK, peptide start residue: 467) (UniProt Q13367)”, which log2 fold change is on record?
Answer: 0.218

Question: For “POLA2 (peptide sequence: SVILEGDREHSSGAQIPVDLSELK, peptide start residue: 269) (UniProt Q14181)”, which log2 fold change is on record?
Answer: 0.292

Question: With “GANAB (peptide sequence: KLVAIVDPHIK, peptide start residue: 462) (UniProt Q14697)” as the target, how does the log2 fold change read?
Answer: 0.454

Question: “COG2 (peptide sequence: VQLEELR, peptide start residue: 40) (UniProt Q14746)” was tested. Which log2 fold change did it give?
Answer: 0.204

Question: With “SCRIB (peptide sequence: GSTPYKGDDEGIFISR, peptide start residue: 747) (UniProt Q14160)” as the target, how does the log2 fold change read?
Answer: -0.533

Question: For “KPNB1 (peptide sequence: DTAAWTVGR, peptide start residue: 426) (UniProt Q14974)”, which log2 fold change is on record?
Answer: -0.206

Question: How did the log2 fold change turn out when “FHL3 (peptide sequence: CSSCKRPIVGLGGGK, peptide start residue: 221) (UniProt Q13643)” was run?
Answer: -0.349

Question: With “TRIM25 (peptide sequence: DEFEFLEK, peptide start residue: 303) (UniProt Q14258)” as the target, how does the log2 fold change read?
Answer: -0.335

Question: How did the log2 fold change turn out when “GAB1 (peptide sequence: GDKQVEYLDLDLDSGK, peptide start residue: 621) (UniProt Q13480)” was run?
Answer: -0.564

Question: How did the log2 fold change turn out when “SQSTM1 (peptide sequence: DHRPPCAQEAPR, peptide start residue: 108) (UniProt Q13501)” was run?
Answer: 0.0594

Question: Which log2 fold change does the source give for “NMI (peptide sequence: VPYEIQK, peptide start residue: 96) (UniProt Q13287)” here?
Answer: -0.312

Question: With “SNTA1 (peptide sequence: QLVDGCHR, peptide start residue: 395) (UniProt Q13424)” as the target, how does the log2 fold change read?
Answer: 0.499

Question: With “UniProt Q13416 (peptide sequence: AQLTEFR, peptide start residue: 534)” as the target, how does the log2 fold change read?
Answer: 0.164

Question: With “PDAP1 (peptide sequence: AREEEEQK, peptide start residue: 34) (UniProt Q13442)” as the target, how does the log2 fold change read?
Answer: 0.13

Question: “UniProt Q15006 (peptide sequence: YASWAASQINR, peptide start residue: 256)” was tested. Which log2 fold change did it give?
Answer: 0.165

Question: “GOLGB1 (peptide sequence: TLKEQLNLLSR, peptide start residue: 930) (UniProt Q14789)” was tested. Which log2 fold change did it give?
Answer: -0.495

Question: How did the log2 fold change turn out when “LBR (peptide sequence: RSASASHQADIK, peptide start residue: 96) (UniProt Q14739)” was run?
Answer: -0.308

Question: For “TP53BP2 (peptide sequence: KVRPFSMFDAVDQSNAPPSFGTLR, peptide start residue: 453) (UniProt Q13625)”, which log2 fold change is on record?
Answer: 0.324

Question: With “UniProt Q14593 (peptide sequence: GPPSVAPLPAGIGR, peptide start residue: 7)” as the target, how does the log2 fold change read?
Answer: 0.0142
